Here are results for 1 molecule from patent publication US20090130105A1.

Protein sequences, listed by entry. Tags and fused reporters are not part of them. Lines headed by an entry give the natural chain unless they say otherwise; changes in a name come on top.
UniProt P08069: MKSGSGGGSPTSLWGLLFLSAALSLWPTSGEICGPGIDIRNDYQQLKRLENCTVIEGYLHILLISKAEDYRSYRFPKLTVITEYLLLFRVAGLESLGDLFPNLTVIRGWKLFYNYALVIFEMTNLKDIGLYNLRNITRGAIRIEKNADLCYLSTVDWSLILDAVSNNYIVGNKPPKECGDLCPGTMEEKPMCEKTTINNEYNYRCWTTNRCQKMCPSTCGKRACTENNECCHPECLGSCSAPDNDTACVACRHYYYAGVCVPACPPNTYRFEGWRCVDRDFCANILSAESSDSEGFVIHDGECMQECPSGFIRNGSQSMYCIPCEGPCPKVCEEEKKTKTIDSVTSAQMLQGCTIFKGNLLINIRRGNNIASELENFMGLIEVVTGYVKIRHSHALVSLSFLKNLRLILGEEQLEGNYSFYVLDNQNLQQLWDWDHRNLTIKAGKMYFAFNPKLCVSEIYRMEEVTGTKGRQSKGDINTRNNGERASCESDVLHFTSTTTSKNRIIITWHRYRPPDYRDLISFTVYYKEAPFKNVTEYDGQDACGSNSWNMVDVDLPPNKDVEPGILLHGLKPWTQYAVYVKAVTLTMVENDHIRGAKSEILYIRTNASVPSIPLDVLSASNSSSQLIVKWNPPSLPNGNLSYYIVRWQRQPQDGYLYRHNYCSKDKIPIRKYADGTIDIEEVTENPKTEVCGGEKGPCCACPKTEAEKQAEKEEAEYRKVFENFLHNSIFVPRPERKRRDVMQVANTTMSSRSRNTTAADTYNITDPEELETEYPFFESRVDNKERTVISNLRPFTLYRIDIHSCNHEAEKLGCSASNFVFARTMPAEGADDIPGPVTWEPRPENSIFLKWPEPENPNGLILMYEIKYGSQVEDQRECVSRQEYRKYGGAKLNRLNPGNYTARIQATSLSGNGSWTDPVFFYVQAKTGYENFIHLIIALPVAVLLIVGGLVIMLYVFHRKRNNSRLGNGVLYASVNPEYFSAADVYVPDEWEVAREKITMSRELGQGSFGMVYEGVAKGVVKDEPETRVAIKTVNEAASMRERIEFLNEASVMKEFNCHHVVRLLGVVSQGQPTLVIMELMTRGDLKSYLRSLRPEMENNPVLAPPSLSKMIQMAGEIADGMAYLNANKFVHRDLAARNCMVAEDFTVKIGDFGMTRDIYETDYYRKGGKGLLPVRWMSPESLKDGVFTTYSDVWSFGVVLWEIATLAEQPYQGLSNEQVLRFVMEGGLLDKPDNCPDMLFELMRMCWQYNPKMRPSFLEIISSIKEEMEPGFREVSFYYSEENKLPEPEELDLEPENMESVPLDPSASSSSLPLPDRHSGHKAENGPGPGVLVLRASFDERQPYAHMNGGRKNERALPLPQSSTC

Assay [1] has as its target hIGF-1R-Fc mutant SD008 (S257F) (human) (UniProt P08069). Nature of the assay: SPR, Fab over captured mutant; NE = KD within 2.5-fold of WT hIGF-1R-Fc. (In general: SPR reads the build-up and loss of mass on a sensor chip optically.)
Assay [2] has as its target hIGF-1R-Fc mutant SD019 (E739W, L741F) (human) (UniProt P08069). The description is as above.

These are yes or no findings as the source states them, for the method shown. Some results given as binding are weak or reduced against the parent protein; the word gives no strength.

B1: M14-C03 Fab (Fab, V domains shown)
VH: EVQLLESGGGLVQPGGSLRLSCAASGFTFSKYMMSWVRQAPGKGLEWVSYISPSGGLTWYADSVKGRFTISRDNSKNTLYLQMNSLRAEDTAVYYCARDGARGYGMDVWGQGTTVTVSS
VL: DIQMTQSPATLSLSPGERATLSCRASQSVSSYLAWYQQKPGQAPRLLIYDASNRATGIPARFSGSGSGTDFTLTISSLEPEDFAVYYCQQRSNWPPEVTFGPGTKVDIK
With B1, the binding result in assay [1] and in assay [2] was “binds” throughout.
